Laboratory results taken from doi:10.1101/2024.10.11.617944.
No constants are given. Whether binding was seen depends on the method and setting. For some assays here: Binding seen in cells or lysates may run through a third protein. Some binding calls cover weakened binding; strength is not graded here. Tags and fused reporters may be left off the sequences shown.

Legend:
[1] = biological target: T1, ABI5-Binding Protein 1 (AFP1), yeast two-hybrid fusions (Arabidopsis thaliana) (UniProt Q9LQ98); test: two-hybrid
T1 sequence: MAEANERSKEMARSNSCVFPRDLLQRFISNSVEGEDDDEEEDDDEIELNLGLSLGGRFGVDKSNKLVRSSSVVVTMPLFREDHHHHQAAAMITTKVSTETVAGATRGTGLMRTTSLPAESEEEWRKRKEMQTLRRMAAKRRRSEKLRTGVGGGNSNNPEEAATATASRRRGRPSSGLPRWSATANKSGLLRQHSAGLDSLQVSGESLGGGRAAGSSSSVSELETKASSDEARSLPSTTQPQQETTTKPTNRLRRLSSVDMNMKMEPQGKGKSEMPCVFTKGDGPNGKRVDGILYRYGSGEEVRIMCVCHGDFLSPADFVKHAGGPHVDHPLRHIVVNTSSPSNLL

[2] = biological target: T2, ABI5-Binding Protein 2 (AFP2), yeast two-hybrid fusions (Arabidopsis thaliana) (UniProt Q9LMX5); test: two-hybrid
T2 sequence: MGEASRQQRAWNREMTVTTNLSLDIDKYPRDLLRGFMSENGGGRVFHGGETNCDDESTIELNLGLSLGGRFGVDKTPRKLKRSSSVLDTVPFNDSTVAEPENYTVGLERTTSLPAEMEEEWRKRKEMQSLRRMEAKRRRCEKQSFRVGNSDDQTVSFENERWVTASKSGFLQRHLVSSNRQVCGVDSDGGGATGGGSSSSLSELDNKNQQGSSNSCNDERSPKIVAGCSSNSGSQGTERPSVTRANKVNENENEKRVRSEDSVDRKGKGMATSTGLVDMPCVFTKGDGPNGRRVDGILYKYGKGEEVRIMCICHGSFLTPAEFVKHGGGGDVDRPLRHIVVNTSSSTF

[3] = biological target: T3, MPK3, BD fusion (Arabidopsis thaliana) (UniProt Q39023); test: two-hybrid
T3 sequence: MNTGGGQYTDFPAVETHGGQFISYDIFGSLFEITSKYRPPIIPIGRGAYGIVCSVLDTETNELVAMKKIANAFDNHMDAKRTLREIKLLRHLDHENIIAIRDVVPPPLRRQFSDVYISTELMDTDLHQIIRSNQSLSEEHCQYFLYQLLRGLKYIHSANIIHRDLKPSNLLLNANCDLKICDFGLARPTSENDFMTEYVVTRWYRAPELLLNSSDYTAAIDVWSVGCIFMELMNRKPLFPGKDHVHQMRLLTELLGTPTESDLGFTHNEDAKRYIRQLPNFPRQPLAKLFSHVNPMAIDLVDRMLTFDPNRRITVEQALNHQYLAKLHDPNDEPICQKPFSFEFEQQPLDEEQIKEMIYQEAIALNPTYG

[4] = biological target: T4, MPK7, yeast two-hybrid fusion (Arabidopsis thaliana) (UniProt Q39027); test: two-hybrid
T4 sequence: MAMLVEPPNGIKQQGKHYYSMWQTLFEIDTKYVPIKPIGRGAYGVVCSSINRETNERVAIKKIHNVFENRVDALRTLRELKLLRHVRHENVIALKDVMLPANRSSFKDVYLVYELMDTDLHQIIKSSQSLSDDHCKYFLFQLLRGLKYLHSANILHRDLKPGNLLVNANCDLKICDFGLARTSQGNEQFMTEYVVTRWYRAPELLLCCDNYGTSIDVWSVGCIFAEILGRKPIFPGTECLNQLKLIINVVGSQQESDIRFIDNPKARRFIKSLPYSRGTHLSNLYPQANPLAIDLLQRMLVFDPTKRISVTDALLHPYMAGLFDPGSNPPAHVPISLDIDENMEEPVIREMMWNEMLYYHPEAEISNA

[5] = biological target: T5, SnRK2.2, BD fusion (Arabidopsis thaliana) (UniProt Q39192); test: two-hybrid
T5 sequence: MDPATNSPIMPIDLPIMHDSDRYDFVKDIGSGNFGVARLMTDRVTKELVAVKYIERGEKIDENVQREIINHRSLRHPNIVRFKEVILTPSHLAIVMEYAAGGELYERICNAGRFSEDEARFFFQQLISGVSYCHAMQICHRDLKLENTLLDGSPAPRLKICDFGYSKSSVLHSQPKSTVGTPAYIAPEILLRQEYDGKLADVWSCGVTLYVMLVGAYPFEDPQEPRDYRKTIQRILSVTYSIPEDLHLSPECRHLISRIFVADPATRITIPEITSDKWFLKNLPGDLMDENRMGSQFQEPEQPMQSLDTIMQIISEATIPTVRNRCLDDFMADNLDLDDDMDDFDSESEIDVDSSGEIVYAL

[6] = biological target: T6, SnRK2.3, BD fusion (Arabidopsis thaliana) (UniProt Q39193); test: two-hybrid
T6 sequence: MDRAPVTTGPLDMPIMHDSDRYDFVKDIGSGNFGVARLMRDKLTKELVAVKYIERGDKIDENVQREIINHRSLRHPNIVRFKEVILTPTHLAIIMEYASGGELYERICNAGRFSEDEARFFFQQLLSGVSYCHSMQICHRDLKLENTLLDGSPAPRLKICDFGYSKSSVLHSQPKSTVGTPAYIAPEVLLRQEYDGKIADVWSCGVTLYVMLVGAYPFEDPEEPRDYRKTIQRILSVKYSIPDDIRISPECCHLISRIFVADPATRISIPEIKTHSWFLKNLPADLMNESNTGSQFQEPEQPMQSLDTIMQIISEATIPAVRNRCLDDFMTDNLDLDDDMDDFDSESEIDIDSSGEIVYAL

[7] = biological target: T7, SnRK2.6, BD fusion (Arabidopsis thaliana) (UniProt Q940H6); test: two-hybrid
T7 sequence: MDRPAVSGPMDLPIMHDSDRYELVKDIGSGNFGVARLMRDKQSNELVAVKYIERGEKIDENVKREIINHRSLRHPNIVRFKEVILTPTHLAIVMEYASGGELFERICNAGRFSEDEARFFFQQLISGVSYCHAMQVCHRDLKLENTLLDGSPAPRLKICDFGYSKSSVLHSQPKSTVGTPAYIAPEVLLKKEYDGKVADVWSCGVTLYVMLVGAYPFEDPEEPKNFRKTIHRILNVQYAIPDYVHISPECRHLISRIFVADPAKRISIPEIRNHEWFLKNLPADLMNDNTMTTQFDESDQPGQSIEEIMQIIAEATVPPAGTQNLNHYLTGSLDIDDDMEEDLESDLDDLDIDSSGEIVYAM

[8] = biological target: T8, GRF4 (14-3-3 phi), split YFP fusions (Arabidopsis thaliana) (UniProt P46077); test: split reporter
T8 sequence: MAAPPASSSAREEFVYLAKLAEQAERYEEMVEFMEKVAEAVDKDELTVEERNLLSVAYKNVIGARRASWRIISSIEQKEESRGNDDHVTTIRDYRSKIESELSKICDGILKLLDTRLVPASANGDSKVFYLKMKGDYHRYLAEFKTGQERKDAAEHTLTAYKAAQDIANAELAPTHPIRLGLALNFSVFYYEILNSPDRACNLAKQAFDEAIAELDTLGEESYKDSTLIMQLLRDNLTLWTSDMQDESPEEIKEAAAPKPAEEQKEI

B1: GRF3 (14-3-3 psi), AD fusion (protein, UniProt P42644 1-255)
chain: MSTREENVYMAKLAEQAERYEEMVEFMEKVAKTVDVEELSVEERNLLSVAYKNVIGARRASWRIISSIEQKEESKGNEDHVAIIKDYRGKIESELSKICDGILNVLEAHLIPSASPAESKVFYLKMKGDYHRYLAEFKAGAERKEAAESTLVAYKSASDIATAELAPTHPIRLGLALNFSVFYYEILNSPDRACSLAKQAFDDAIAELDTLGEESYKDSTLIMQLLRDNLTLWTSDMTDEAGDEIKEASKPDGAE
binding [1]: binds weakly | binding [2]: binds

B2: GRF1 (14-3-3 chi), AD fusion (protein, UniProt P42643 1-267)
chain: MATPGASSARDEFVYMAKLAEQAERYEEMVEFMEKVAKAVDKDELTVEERNLLSVAYKNVIGARRASWRIISSIEQKEESRGNDDHVSLIRDYRSKIETELSDICDGILKLLDTILVPAAASGDSKVFYLKMKGDYHRYLAEFKSGQERKDAAEHTLTAYKAAQDIANSELAPTHPIRLGLALNFSVFYYEILNSPDRACNLAKQAFDEAIAELDTLGEESYKDSTLIMQLLRDNLTLWTSDMQDDVADDIKEAAPAAAKPADEQQS
binding [1]: binds weakly | binding [2]: no binding

B3: ABI5-Binding Protein 4 (AFP4), yeast two-hybrid fusions (protein, UniProt Q9S7Z2 1-319)
chain: MEMIRGRGIPNGVVQVPNLSANNLLQKFFIASNHFCQRDSEHGENQQEAKKREDEAEEDEKDVELTLGLSLNGQFGTDPRSRKRRHFELGRSSSIPEGFVFDEQRSGGGNGGDMRRIVGRGGSDMFQLDRTRSLPVVTEMDIEKERKVSEKTRAFMESPVTNRGAYLTKDKNRGQAVETEKPRAFLEFKIPPTKEGKKEKDRLVVTGPVNGKGKNGNTAKKQKNNVENSGMEKARNILEDMPCVSTRDVGADGKRVEGFLYWYGGNKEEVKIVCVCHGSFLSPAEFVRHGGGTVSDDDGGDVMINPLRHIVVKLPSSSI
binding [3]: no binding | binding [4]: no binding | binding [5]: no binding | binding [6]: no binding | binding [7]: no binding

B4: S112A mutant of the AFP2-BC domain, split YFP fusion (domain or fragment, UniProt Q9LMX5 94-348)
chain: DSTVAEPENYTVGLERTTALPAEMEEEWRKRKEMQSLRRMEAKRRRCEKQSFRVGNSDDQTVSFENERWVTASKSGFLQRHLVSSNRQVCGVDSDGGGATGGGSSSSLSELDNKNQQGSSNSCNDERSPKIVAGCSSNSGSQGTERPSVTRANKVNENENEKRVRSEDSVDRKGKGMATSTGLVDMPCVFTKGDGPNGRRVDGILYKYGKGEEVRIMCICHGSFLTPAEFVKHGGGGDVDRPLRHIVVNTSSSTF
binding [8]: binds

B5: GRF4 (14-3-3 phi), AD fusion (protein, UniProt P46077 1-267)
chain: MAAPPASSSAREEFVYLAKLAEQAERYEEMVEFMEKVAEAVDKDELTVEERNLLSVAYKNVIGARRASWRIISSIEQKEESRGNDDHVTTIRDYRSKIESELSKICDGILKLLDTRLVPASANGDSKVFYLKMKGDYHRYLAEFKTGQERKDAAEHTLTAYKAAQDIANAELAPTHPIRLGLALNFSVFYYEILNSPDRACNLAKQAFDEAIAELDTLGEESYKDSTLIMQLLRDNLTLWTSDMQDESPEEIKEAAAPKPAEEQKEI
binding [1]: binds weakly | binding [2]: binds

B6: GRF2 (14-3-3 omega), AD fusion (protein, UniProt Q01525 1-259)
chain: MASGREEFVYMAKLAEQAERYEEMVEFMEKVSAAVDGDELTVEERNLLSVAYKNVIGARRASWRIISSIEQKEESRGNDDHVTAIREYRSKIETELSGICDGILKLLDSRLIPAAASGDSKVFYLKMKGDYHRYLAEFKTGQERKDAAEHTLAAYKSAQDIANAELAPTHPIRLGLALNFSVFYYEILNSPDRACNLAKQAFDEAIAELDTLGEESYKDSTLIMQLLRDNLTLWTSDMQDDAADEIKEAAAPKPTEEQQ
binding [1]: binds weakly | binding [2]: no binding
